Measured values published in patent publication US12465614B2, “Budesonide 21-phosphate salts and pharmaceutical compositions containing the same” (GENETIC S.P.A., priority 2020, dated 2025).

How the values were obtained:
[1] = tested on: mice with OVA-induced allergic asthma; test: BAL fluid cell counts (Experimental Groups II); type: in vivo; conditions: i.n.; all treatments: FB 0.3, 1.0, 3.0 nmol/animal; F and B 3.0 nmol/animal
Procedure: (§1) Male Balb/c SPF mice (25*2 g, 6-week-old) were purchased from the animal house facilities at the São Paulo School of Medicine (Federal University of São Paulo, Brazil). They were group-housed in a temperature-controlled room at 22° C. with a 12/12-hour light/dark cycle and allowed free access to food and water. The study is in agreement with the Ethical Principles for Animal Research established by the Brazilian College for Animal Experimentation (COBEA). According to the internal laboratory rules, euthanasia is performed if severe distress related to the test agents developed during the experiment. […] The compounds were dissolved in DMSO (Sigma Chemical Co., St. Louis, MO) at concentrations at which the determined dose per animal results from the intraperitoneal administration of 100 μl of solution (1:10 DMSO) and intra-nasal (i.n.) administration of 10 μl/animal (5 μl/nostril) of the solutions. Mice were sensitized with two subcutaneous injections of 0.4 ml of OVA/Al(OH)3, with an interval of 7 days (Sham animals received the Al(OH)3 suspension in PBS with no OVA). […] Total cell counts were determined using a Neubauer chamber, and differential counting was carried out in cytospin (Fanem Mod 2400; São Paulo, Brazil) preparations stained with May-Grünwald dye. […]

[2] = tested on: mice with OVA-induced allergic asthma; test: Circulating leukocyte cell counts (Experimental Groups II); type: in vivo; conditions: i.n.; FB all tested doses (0.3, 1.0, 3.0 nmol/animal); B and F 3 nmol/animal
Procedure: as §1

COc1ccc(CC(C)NCC(O)c2ccc(O)c(NC=O)c2)cc1 (centres unmarked) [F, N-[2-hydroxy-5-[1-hydroxy-2-[[2-(p-methoxyphenyl)-2-propy]-amino]-ethyl]-phenyl]-formamide, reference compound]
eosinophils in BAL samples [1]: significantly controlled
circulating macrophages [2]: devoid of any effect
